{
  "sequences": {"note": "Chains of the proteins cited; added tags and fusions are not shown. Lines headed by an entry give the natural chain unless they say otherwise; changes in a name come on top.", "UniProt P46063": "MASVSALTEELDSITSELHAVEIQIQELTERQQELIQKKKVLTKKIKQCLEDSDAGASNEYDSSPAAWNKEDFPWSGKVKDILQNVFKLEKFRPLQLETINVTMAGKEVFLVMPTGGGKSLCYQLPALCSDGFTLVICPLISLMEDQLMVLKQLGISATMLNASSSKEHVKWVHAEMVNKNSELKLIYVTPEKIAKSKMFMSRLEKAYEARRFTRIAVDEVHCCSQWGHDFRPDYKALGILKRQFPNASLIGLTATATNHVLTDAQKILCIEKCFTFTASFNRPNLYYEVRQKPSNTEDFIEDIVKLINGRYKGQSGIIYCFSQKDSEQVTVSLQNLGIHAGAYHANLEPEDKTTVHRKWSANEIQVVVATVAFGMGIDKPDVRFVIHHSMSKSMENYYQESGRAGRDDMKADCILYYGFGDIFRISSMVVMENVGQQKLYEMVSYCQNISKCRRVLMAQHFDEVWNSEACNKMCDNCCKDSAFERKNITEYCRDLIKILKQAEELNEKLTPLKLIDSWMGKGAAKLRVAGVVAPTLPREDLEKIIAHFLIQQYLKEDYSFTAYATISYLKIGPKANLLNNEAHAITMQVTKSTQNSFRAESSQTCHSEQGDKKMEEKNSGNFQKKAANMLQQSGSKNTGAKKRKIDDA"},
  "source": "PubChem BioAssay AID2549",
  "about": "(National Center for Advancing Translational Sciences (NCATS), 2010)",
  "note": "Screen size: about 240,000 compounds; about 1,300 (0.54%) were called active. The inconclusive results got no clear call from the source; some entries with a clear call stand among them for comparison. Calls follow the shape of the dose curve; as a rule, active = well fitted inhibition curve with a large enough effect; inconclusive = small, poorly fitted or top-dose-only effect; inactive = flat fitted curve, though single readings scatter. Potencies beside an inconclusive call are fits to weak or partial responses and may not hold up. More than one record can exist for a structure, and the calls need not agree. Potency is read from the fitted curve at half-maximal effect.",
  "data": [
    {"biological_target": "ATP-dependent DNA helicase Q1 (Homo sapiens) (UniProt P46063)", "assay": "qHTS Assay for Inhibitors of RecQ-Like Dna Helicase 1 (RECQ1); also: nearly all actives have a fitted effect of over 30% in size", "conditions": "RECQ1 DNA unwinding, red fluorescence kinetic read; series mostly up to 57.3 µM", "how_it_was_run": "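RECQ1T1 50 nM; forked duplex (20 bp + 30-nt ss tails) 200 nM, ATP 2 mM final; pH 8.0, 2 mM MgCl2, 2.5 ug/ml poly(dI-dC); 15 min compound preincubation; discontinuous kinetic read over 2 h at RT.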", "values": [
      {"smiles": "COc1ccccc1NC(=O)CCN1CCN(CCC(=O)Nc2ccccc2OC)CC1", "Potency": "inactive"},
      {"smiles": "Cc1ccc(C(NC(=O)C(C)C)c2cc([N+](=O)[O-])c3cccnc3c2O)cc1", "note": "(stereo not given)", "Potency": "inconclusive: 50.1 µM [inhibitor, partial curve, poor fit]"},
      {"smiles": "Cc1c(Cl)cccc1NC(=S)N(Cc1cccnc1)Cc1ccccc1Cl", "Potency": "inconclusive: 0.112 µM [inhibitor, full curve, poor fit]"},
      {"smiles": "O=c1c(CO)cc(CO)cc(CO)c1O", "Potency": "inactive"},
      {"smiles": "COc1cc(/C=C2\\SC(=S)N(NC(=O)c3ccncc3)C2=O)ccc1O", "Potency": "active: 14.1 µM"},
      {"smiles": "COc1cccc2c(C)nc(Nc3nc(CSc4nnc(C)s4)cc(=O)[nH]3)nc12", "Potency": "inactive"},
      {"smiles": "C=CCc1cc(/C=N\\NC(=O)CSc2nnc(CCCc3ccc(OC)c(C)c3)o2)cc(OC)c1O", "Potency": "inactive"},
      {"smiles": "C#CCOCCOCCOCCNc1nc(N2CCN(C(=O)[C@H](Cc3cc4ccccc4[nH]3)n3cc([C@@H](N)C(C)CC)nn3)CC2)nc(N2CCN(C(=O)[C@H](Cc3cc4ccccc4[nH]3)n3cc([C@@H](N)CC(C)C)nn3)CC2)n1", "note": "(stereo not given in full)", "Potency": "inconclusive: 39.8 µM [inhibitor, single point]"},
      {"smiles": "Oc1ccc(Nc2nc(NCC3CCCO3)c3ccccc3n2)cc1", "note": "(stereo not given)", "Potency": "active: 14.1 µM"},
      {"smiles": "O=C1CCCC=C1[C@@H](O)CCOC(c1ccccc1)(c1ccccc1)c1ccccc1", "Potency": "inactive"},
      {"smiles": "Cc1ccc(-c2cc(-c3ccco3)c(C#N)c(=O)[nH]2)cc1", "Potency": "inconclusive: 15.8 µM [inhibitor, single point]"},
      {"smiles": "Cc1nn(Cc2ccc(F)cc2)c(C)c1NC(=O)c1cc2ncc(Br)cn2n1", "Potency": "inactive"},
      {"smiles": "Cc1ccc(S(=O)(=O)N/N=C\\c2ccc(C)o2)cc1", "Potency": "inconclusive: 25.1 µM [inhibitor, partial curve]"},
      {"smiles": "C(=C\\c1ccccc1)/CSc1nnc(-c2ccncc2)n1Cc1ccco1", "Potency": "inconclusive: 39.8 µM [inhibitor, single point]"},
      {"smiles": "Cc1ccc(C(=O)Nc2ccc(N3CCOCC3)nc2N2CCOCC2)cc1", "Potency": "inactive"},
      {"smiles": "CCOC(=O)C1=C(CSc2nc3c(cc2C#N)CN(C)CC3)OC(N)=C(C#N)C1c1ccc(F)cc1", "note": "(stereo not given)", "Potency": "inconclusive: 12.6 µM [inhibitor, partial curve]"},
      {"smiles": "COc1ccc(-n2c(=O)c(-c3cccs3)nc3cnc(N4CCNCC4)nc32)cc1", "Potency": "inconclusive: 35.5 µM [inhibitor, single point]"},
      {"smiles": "C#CCSc1nnc(-c2c[nH]c3ccccc23)n1C", "Potency": "inconclusive: 3.55 µM [inhibitor, partial curve, poor fit]"},
      {"smiles": "CCCn1nnc(NC(=O)C(C)C)n1", "Potency": "inconclusive: 0.0708 µM [inhibitor, full curve, poor fit]"},
      {"smiles": "CN(C1=C(N2CCOCC2)C(=O)c2ccccc2C1=O)c1ccccc1", "Potency": "inactive"},
      {"smiles": "O=C(OCc1nnc(-c2ccccc2)o1)c1ccc(S(=O)(=O)NCc2ccco2)cc1", "Potency": "active: 39.8 µM"},
      {"smiles": "CNS(=O)(=O)c1ccc2nc(NC(=O)/C=C/c3ccco3)sc2c1", "Potency": "inconclusive: 35.5 µM [inhibitor, single point]"},
      {"smiles": "COc1ccc2cc(-c3[nH]ncc3CN3CCCN(c4ccccc4)CC3)ccc2c1", "Potency": "inconclusive: 39.8 µM [inhibitor, single point]"},
      {"smiles": "CCCCCCCCCCCCCCCC(=O)C1=C(O)C(CO)OC1=O", "note": "(stereo not given)", "Potency": "active: 35.5 µM"},
      {"smiles": "COC(=O)c1c(NC(=O)c2ccc(C)c(S(=O)(=O)Nc3ccccc3C)c2)sc2c1CCCC2", "Potency": "inconclusive: 3.55 µM [inhibitor, partial curve]"},
      {"smiles": "Cc1cc(C)n(CCc2nc(-c3ccc(C)o3)cs2)n1", "Potency": "inconclusive: 39.8 µM [inhibitor, partial curve]"},
      {"smiles": "CCCCCCCCOc1c(OC)cc(/C=C/C(=O)N2CCN(c3ccc(C)c(C)c3)CC2)cc1OC", "Potency": "inactive"},
      {"smiles": "O=C(c1ccccc1NS(=O)(=O)c1cccc([N+](=O)[O-])c1)N1CCOCC1", "Potency": "inconclusive: 17.8 µM [inhibitor, partial curve]"},
      {"smiles": "CN1CCC[C@H]1c1cccnc1", "Potency": "inactive"},
      {"smiles": "Cc1cccc(C2=NN(c3ccccc3)[C@@H](C(=O)N3CCOC3=O)[C@@H]2c2ccccc2)c1", "Potency": "inconclusive: 22.4 µM [inhibitor, single point]"},
      {"smiles": "O=C1OCCC1Sc1nc2ccccc2c(=O)n1Cc1ccccc1", "note": "(stereo not given)", "Potency": "inconclusive: 39.8 µM [inhibitor, partial curve]"},
      {"smiles": "O=C1CC(N(CCc2ccccc2)C(=S)Nc2ccccc2)C(=O)N1c1ccc(Br)cc1", "note": "(stereo not given)", "Potency": "inconclusive: 39.8 µM [inhibitor, single point]"},
      {"smiles": "Cc1ccc(O)c(CNc2cccc3cccnc23)c1", "Potency": "inconclusive: 5.01 µM [inhibitor, full curve, poor fit]"},
      {"smiles": "Cc1ccc(S(=O)(=O)c2cc3c(=O)n4ccccc4nc3n(Cc3ccco3)c2=N)cc1", "Potency": "active: 14.1 µM"},
      {"smiles": "O=C(Nc1ccc(S(=O)(=O)Nc2nccs2)cc1)c1cccc(N2C(=O)c3ccccc3C2=O)c1", "Potency": "inconclusive: 39.8 µM [inhibitor, single point]"},
      {"smiles": "CCN1C(=O)C(C)S/C1=N\\S(=O)(=O)c1ccc(F)cc1", "note": "(stereo not given)", "Potency": "inconclusive: 5.01 µM [inhibitor, single point]"},
      {"smiles": "O=C(N/N=C/c1ccc(-c2ccccc2[N+](=O)[O-])o1)c1cncc(Br)c1", "Potency": "inactive"},
      {"smiles": "COc1c(O)c(O)cc2c1oc1c3ccccc3oc(=O)c21", "Potency": "active: 11.2 µM"},
      {"smiles": "Cc1ccccc1OCC(O)CN(Cc1ccccc1O)C1CCCCC1", "note": "(stereo not given)", "Potency": "inactive"},
      {"smiles": "S=c1[nH]nc(-c2cc(-c3ccccc3)n[nH]2)n1/N=C/C=C/c1ccco1", "Potency": "inconclusive: 25.1 µM [inhibitor, single point]"},
      {"smiles": "COc1ccc(Cn2cccc(NC(=O)Nc3cccc(OC)c3)c2=O)cc1", "Potency": "inconclusive: 35.5 µM [inhibitor, single point]"},
      {"smiles": "CCC1C(=O)CC2CCN3C(=O)CCC1C23", "note": "(stereo not given)", "Potency": "inactive"},
      {"smiles": "CC(C)CNC(=O)C(=O)N/N=C/c1cccs1", "Potency": "inconclusive: 0.112 µM [inhibitor, full curve]"},
      {"smiles": "Cc1c(O)c(CN2CCCC2)cc2c3c(c(=O)oc12)CCC3", "Potency": "inconclusive: 35.5 µM [inhibitor, single point]"},
      {"smiles": "O=S(=O)(c1ccccc1)N1CCC2(CC1)CN(C(c1ccccc1)c1ccccc1)C2", "Potency": "inactive"},
      {"smiles": "COCCNc1nc(-c2ccc(OC)cc2)c(-c2ccc(OC)cc2)s1", "Potency": "inconclusive: 20 µM [inhibitor, partial curve]"},
      {"smiles": "Cc1ccc(NC(=O)COS(=O)c2ccc(C)cc2)cc1", "note": "(stereo not given)", "Potency": "inconclusive: 5.01 µM [inhibitor, full curve]"},
      {"smiles": "COc1c(O)c(O)cc2c1oc1c3cc(C)ccc3oc(=O)c21", "Potency": "active: 8.91 µM"},
      {"smiles": "COc1ccccc1CNCCCCCCNCCCCCCCCNCCCCCCNCc1ccccc1OC", "Potency": "inconclusive: 39.8 µM [inhibitor, single point]"},
      {"smiles": "Cc1cc(/C=C\\c2nc(O)c([N+](=O)[O-])c(=O)[nH]2)c(C)n1-c1ccccc1", "Potency": "active: 25.1 µM"},
      {"smiles": "CC(C)=CCN1CCN(Cc2cnc(N3CCOCC3)s2)CC1CCO", "note": "(stereo not given)", "Potency": "inactive"},
      {"smiles": "Cc1ccccc1-c1nc(NCCN2CCOCC2)c2ccccc2n1", "Potency": "inactive"},
      {"smiles": "CCOc1ccc(NC(=O)CSc2nnc(C3CC3)n2N)cc1", "Potency": "inconclusive: 0.0251 µM [inhibitor, full curve, poor fit]"},
      {"smiles": "CC(=O)OCCCNc1cc(SCc2ccco2)c2nonc2c1[N+](=O)[O-]", "Potency": "inconclusive: 14.1 µM [inhibitor, partial curve]"},
      {"smiles": "Cc1ccc(NC(=O)c2cc(N3C(=O)C=CC3=O)ccc2N2CCOCC2)cc1", "Potency": "inactive"},
      {"smiles": "CCn1cc(-c2csc(N)n2)c(C)n1", "Potency": "inconclusive: 2 µM [inhibitor, full curve, poor fit]"},
      {"smiles": "N#Cc1cnn(-c2nc(SCc3ccccc3)nc3sc4c(c23)CCCC4)c1N", "Potency": "active: 7.94 µM"},
      {"smiles": "CC1/C=C/C=C/C=C/C=C/C=C/C=C/C=C/C(OC2OC(C)C(O)C(N)C2O)CC2O[C@@](O)(CC(O)CC(O)C(O)CCC(O)CC(O)CC(=O)OC(C)[C@H](C)C1O)CC(O)C2C(=O)O", "note": "(stereo not given in full)", "Potency": "active: 20 µM"},
      {"smiles": "CCCCCC/C(C)=C1/SC(=S)NC1=O", "Potency": "inactive"},
      {"smiles": "Cc1c([N+](=O)[O-])cc(C(=O)Nc2ccc(Cc3ccncc3)cc2)cc1[N+](=O)[O-]", "Potency": "inconclusive: 3.55 µM [inhibitor, full curve]"},
      {"smiles": "CC(C)(c1cc(Br)c(O)c(Br)c1)c1cc(Br)c(O)c(Br)c1", "Potency": "active: 22.4 µM"},
      {"smiles": "S=c1[nH]nc(-c2cc(-c3ccccc3)n[nH]2)n1/N=C/c1ccc(Cl)cc1", "Potency": "inactive"},
      {"smiles": "O=C1NN(c2ccc(Cl)c(Cl)c2)C(=O)/C1=C/c1cccc(OC(=O)c2cccs2)c1", "Potency": "inconclusive: 20 µM [inhibitor, single point]"},
      {"smiles": "COc1cc(C(F)(F)F)c(C(=O)N(C)c2ccc(Cl)cc2)cn1", "Potency": "inactive"},
      {"smiles": "CCOCCn1c(CN2CCCC(C)C2)nc2c1c(=O)n(C)c(=O)n2C", "note": "(stereo not given)", "Potency": "inconclusive: 28.2 µM [inhibitor, single point]"},
      {"smiles": "Cc1cccc(NC(=O)c2oc3c(c2C)C(=O)CC(C)(C)C3)n1", "Potency": "inconclusive: 7.08 µM [inhibitor, full curve]"},
      {"smiles": "Nc1ccc(C(=O)OCC(=O)N2c3ccccc3Sc3ccccc32)cc1[N+](=O)[O-]", "Potency": "active: 28.2 µM"},
      {"smiles": "COc1ccc(OC)c(C=Nc2ccccc2-c2nc3ccccc3[nH]2)c1", "Potency": "inconclusive: 39.8 µM [inhibitor, single point]"},
      {"smiles": "O=C(c1ccc(NC2=NC3CS(=O)(=O)CC3S2)cc1)N1CCN(C(=O)c2ccco2)CC1", "note": "(stereo not given)", "Potency": "inconclusive: 25.1 µM [inhibitor, partial curve, poor fit]"},
      {"smiles": "CC(C)(C)NC(=O)CCCSc1nc2ccccc2s1", "Potency": "inconclusive: 8.91 µM [inhibitor, single point]"}
    ]}
  ]
}
